In the supplement of paper PMC10849652:
The list shows a part of the results.

Sequences of proteins named here, by UniProt entry; tags and fusion partners are left off. A change or cut given only in a name is not applied to a line headed by its entry.
UniProt Q9Y294, whole entry, looked up: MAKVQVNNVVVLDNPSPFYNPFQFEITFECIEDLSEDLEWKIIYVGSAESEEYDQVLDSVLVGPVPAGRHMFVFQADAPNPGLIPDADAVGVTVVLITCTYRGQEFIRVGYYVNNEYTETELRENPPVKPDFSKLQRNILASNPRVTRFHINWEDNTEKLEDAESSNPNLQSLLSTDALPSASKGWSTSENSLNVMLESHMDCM
UniProt Q9NT62, whole entry, looked up: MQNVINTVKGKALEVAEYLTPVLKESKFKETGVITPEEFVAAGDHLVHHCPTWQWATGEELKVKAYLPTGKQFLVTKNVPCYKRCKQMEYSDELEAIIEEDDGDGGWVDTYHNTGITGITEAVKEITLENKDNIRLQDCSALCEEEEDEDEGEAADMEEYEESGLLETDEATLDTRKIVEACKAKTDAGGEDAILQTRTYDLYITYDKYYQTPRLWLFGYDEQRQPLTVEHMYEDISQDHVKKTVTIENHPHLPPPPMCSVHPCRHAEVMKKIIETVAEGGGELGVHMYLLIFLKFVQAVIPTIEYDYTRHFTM
UniProt Q9UH62: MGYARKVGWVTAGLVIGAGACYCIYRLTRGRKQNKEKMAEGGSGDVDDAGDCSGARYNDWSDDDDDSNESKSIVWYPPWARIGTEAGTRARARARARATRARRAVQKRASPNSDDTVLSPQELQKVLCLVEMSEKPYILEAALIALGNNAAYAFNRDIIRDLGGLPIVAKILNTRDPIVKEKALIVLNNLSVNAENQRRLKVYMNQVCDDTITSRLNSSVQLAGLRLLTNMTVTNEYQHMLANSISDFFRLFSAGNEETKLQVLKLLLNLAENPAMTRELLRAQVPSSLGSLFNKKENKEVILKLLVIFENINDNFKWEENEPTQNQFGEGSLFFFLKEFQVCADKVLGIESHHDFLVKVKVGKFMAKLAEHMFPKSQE
UniProt P00966: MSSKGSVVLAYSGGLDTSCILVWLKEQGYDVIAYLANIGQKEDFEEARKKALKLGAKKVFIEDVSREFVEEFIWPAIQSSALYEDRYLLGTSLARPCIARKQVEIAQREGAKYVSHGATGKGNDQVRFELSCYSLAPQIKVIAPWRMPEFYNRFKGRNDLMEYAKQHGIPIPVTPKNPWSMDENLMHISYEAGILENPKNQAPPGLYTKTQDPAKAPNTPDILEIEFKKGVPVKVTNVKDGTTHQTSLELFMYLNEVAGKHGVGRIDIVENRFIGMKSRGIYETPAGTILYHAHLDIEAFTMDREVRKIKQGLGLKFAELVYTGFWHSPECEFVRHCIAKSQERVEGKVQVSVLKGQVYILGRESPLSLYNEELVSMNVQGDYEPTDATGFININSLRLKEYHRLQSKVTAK
UniProt Q6P4H8: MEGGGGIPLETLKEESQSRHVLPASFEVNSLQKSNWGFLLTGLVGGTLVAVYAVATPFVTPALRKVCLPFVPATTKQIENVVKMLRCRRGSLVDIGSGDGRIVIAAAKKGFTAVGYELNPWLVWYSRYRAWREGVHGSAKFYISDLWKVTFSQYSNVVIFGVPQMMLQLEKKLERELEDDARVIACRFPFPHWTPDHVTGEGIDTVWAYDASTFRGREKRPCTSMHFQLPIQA
UniProt Q92747, whole entry, looked up: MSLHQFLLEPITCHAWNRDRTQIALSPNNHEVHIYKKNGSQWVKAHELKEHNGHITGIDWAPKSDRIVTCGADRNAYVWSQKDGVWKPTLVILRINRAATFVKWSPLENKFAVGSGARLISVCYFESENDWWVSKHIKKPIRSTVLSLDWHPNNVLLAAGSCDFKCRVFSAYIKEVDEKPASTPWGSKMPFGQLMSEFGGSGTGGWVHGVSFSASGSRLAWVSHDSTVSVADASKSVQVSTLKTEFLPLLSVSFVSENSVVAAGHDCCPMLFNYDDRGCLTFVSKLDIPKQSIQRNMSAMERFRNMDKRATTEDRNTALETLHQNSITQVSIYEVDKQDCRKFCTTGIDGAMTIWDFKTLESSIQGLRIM
UniProt P36542: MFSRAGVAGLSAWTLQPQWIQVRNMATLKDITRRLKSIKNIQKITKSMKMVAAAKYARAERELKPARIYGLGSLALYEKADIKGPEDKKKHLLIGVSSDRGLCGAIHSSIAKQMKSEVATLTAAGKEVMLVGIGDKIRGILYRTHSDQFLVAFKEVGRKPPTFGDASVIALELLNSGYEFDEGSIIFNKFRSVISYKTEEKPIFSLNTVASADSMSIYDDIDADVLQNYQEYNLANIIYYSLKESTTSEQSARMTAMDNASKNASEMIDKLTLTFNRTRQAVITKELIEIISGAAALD
UniProt Q16864, whole entry, looked up: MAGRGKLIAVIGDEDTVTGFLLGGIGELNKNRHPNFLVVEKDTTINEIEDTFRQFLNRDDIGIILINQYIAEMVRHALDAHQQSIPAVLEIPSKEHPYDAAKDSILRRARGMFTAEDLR
UniProt P31939: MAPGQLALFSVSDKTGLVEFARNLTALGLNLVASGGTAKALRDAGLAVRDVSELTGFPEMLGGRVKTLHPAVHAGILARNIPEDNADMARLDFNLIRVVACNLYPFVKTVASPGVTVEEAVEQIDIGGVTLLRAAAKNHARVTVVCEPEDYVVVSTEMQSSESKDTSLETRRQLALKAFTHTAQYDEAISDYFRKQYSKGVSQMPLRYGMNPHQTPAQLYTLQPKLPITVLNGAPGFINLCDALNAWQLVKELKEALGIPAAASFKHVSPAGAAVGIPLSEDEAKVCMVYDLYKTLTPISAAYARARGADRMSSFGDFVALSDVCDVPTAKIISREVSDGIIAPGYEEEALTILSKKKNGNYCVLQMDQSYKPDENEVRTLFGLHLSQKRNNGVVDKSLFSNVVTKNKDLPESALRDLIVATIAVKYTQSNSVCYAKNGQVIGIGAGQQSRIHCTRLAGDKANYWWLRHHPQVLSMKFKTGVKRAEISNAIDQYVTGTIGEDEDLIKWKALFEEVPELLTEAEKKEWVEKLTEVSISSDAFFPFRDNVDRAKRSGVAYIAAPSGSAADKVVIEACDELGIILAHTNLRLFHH
UniProt Q9Y2G3: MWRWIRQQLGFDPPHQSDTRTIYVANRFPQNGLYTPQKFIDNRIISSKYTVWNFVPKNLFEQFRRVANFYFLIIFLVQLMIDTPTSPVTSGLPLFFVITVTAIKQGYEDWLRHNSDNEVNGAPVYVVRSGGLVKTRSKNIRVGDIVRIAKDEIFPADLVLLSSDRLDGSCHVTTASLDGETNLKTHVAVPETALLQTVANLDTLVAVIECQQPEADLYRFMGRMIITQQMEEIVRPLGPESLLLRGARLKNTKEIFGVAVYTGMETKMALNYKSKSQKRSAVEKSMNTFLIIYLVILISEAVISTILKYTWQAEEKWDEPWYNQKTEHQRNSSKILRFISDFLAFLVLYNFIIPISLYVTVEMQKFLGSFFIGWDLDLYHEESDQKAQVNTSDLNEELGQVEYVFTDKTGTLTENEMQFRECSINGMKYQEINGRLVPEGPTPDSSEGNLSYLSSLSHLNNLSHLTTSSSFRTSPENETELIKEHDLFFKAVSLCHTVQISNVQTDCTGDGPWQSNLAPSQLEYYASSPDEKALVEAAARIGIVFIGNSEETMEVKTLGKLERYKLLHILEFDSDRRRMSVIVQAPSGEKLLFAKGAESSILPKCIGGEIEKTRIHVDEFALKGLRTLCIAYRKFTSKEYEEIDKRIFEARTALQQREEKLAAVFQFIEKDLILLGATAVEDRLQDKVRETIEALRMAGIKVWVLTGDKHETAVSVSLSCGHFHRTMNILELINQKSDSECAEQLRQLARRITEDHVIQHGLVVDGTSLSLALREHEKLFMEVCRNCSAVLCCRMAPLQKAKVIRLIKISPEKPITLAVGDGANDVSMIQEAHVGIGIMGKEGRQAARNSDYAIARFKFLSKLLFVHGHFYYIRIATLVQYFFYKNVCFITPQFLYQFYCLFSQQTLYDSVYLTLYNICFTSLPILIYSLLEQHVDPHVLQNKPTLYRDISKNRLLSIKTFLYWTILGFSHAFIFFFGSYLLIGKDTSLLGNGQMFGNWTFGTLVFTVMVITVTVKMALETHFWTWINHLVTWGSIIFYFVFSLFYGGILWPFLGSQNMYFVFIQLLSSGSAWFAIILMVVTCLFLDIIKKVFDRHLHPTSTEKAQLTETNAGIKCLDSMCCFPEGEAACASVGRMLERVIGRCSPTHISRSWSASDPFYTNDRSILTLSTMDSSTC
UniProt Q8NHH9: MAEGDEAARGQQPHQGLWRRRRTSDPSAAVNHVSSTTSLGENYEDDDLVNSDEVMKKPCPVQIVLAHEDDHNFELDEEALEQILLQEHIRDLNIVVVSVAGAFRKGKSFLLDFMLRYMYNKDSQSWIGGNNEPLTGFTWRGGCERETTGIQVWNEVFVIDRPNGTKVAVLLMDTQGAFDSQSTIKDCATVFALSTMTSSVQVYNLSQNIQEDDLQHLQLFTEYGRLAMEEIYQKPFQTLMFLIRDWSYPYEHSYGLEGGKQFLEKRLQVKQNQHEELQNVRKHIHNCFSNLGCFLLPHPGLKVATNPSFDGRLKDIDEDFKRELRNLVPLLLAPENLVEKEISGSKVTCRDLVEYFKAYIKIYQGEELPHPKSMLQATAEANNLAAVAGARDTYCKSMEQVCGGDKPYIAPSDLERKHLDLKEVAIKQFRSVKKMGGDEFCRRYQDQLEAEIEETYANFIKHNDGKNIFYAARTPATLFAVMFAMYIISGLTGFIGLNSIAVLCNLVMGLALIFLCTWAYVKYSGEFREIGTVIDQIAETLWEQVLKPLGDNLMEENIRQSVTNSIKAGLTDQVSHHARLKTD
UniProt Q8N6S5: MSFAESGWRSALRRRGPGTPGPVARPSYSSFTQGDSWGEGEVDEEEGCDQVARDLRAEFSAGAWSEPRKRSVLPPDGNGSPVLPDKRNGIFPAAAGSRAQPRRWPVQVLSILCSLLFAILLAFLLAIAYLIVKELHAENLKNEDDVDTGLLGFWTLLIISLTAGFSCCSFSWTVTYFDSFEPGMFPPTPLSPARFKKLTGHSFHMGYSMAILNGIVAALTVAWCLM
UniProt Q9BPX5, whole entry, looked up: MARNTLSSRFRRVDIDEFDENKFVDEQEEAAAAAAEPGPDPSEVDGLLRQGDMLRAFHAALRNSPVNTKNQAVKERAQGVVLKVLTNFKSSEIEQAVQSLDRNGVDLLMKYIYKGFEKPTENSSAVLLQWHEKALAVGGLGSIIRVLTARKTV
UniProt P98194: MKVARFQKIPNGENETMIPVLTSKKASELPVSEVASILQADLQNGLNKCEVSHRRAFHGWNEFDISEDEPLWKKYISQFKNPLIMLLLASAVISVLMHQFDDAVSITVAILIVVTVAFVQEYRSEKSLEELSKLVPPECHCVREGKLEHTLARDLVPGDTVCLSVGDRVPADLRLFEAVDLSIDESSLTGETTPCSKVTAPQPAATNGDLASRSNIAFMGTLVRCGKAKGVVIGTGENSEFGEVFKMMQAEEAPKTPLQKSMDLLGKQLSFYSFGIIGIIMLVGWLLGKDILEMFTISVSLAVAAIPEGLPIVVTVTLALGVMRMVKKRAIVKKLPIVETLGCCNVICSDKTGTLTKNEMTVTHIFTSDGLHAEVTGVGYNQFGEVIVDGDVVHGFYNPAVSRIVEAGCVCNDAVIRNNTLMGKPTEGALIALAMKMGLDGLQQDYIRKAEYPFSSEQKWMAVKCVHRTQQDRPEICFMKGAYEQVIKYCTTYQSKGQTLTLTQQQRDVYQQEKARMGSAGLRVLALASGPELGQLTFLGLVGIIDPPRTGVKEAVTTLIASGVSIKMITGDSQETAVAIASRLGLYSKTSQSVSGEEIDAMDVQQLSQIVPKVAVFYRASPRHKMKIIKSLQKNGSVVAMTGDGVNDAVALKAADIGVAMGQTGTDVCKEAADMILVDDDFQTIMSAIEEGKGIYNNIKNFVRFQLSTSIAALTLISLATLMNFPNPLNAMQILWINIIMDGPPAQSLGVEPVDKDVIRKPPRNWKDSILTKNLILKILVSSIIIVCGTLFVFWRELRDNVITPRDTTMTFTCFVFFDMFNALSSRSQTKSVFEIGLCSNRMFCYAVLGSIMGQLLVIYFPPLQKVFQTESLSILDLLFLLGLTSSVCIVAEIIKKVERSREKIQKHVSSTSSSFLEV
UniProt O00244: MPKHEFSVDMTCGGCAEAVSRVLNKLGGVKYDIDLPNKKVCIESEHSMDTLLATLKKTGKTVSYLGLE
UniProt P56134: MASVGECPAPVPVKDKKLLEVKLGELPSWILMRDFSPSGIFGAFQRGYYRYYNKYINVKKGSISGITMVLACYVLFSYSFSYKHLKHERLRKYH
UniProt Q9Y2Y0: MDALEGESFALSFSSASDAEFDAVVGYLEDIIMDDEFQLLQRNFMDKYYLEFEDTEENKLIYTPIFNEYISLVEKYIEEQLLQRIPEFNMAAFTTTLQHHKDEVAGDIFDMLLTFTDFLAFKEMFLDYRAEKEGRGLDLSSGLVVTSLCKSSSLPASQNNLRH
UniProt P36405: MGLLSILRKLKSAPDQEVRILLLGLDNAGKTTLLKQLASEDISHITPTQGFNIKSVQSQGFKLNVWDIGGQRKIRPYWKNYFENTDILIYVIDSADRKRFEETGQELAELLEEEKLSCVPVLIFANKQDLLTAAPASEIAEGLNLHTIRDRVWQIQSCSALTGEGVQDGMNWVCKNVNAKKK
UniProt P56211: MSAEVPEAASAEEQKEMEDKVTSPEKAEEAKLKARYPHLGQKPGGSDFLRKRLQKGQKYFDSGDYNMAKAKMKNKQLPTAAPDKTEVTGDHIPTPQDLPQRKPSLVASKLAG

Key:
Experiment in all cases: log2 fold change, soluble protein after heating vs DMSO (PISA); higher = thermal stabilisation; K562 cells, 10 uM, 30 min; active = over 0.2 and 3.5 SD of the protein, either way, in both replicates (recomputed)
[1] = compound: NC(=O)Nc1cc(-c2cccc(F)c2)sc1C(=O)N[C@H]1CCCNC1
Summary of the method: (§1)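 Values are thermal stability changes relative to control samples and are taken from duplicates. They are stated as log2 fold changes. Before quantification by TMTpro 16plex LC-MS/MS with equalised channel sums, K562 cells at 2×10^6 cells/mL were treated with 10 μM compound for 30 min, heated in aliquots for 3 min across 48°C-58°C, pooled, extracted in PBS with 0.5% NP-40 at 4°C, and centrifuged at 21,000xg for 90 min to give the soluble supernatant.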

[2] = compound: NC(=O)c1cnc(N[C@@H]2CCCC[C@@H]2N)nc1Nc1cccc(-n2nccn2)c1
Summary of the method: as §1

[3] = compound: NC1(c2ccc(-c3nc4ccn5c(=O)[nH]nc5c4cc3-c3ccccc3)cc2)CCC1
Summary of the method: as §1

[4] = compound: NCC(=O)Nc1ccc(-n2nc(C(F)(F)F)cc2-c2ccc3c(ccc4ccccc43)c2)cc1
Summary of the method: as §1

entinostat = compound: Nc1ccccc1NC(=O)c1ccc(CNC(=O)OCc2cccnc2)cc1 [entinostat]
Summary of the method: as §1

vorinostat = compound: O=C(CCCCCCC(=O)Nc1ccccc1)NO [vorinostat]
Summary of the method: as §1

citarinostat = compound: O=C(CCCCCCNC(=O)c1cnc(N(c2ccccc2)c2ccccc2Cl)nc1)NO [citarinostat]
Summary of the method: as §1

silmitasertib = compound: O=C(O)c1ccc2c(c1)nc(Nc1cccc(Cl)c1)c1ccncc12 [silmitasertib]
Summary of the method: as §1

[5] = compound: O=C1NC(=O)C(c2cnc3ccccn23)=C1c1cn2c3c(cc(F)cc13)CN(C(=O)N1CCCCC1)CC2
Summary of the method: as §1

[6] = compound: c1cc(OCCN2CCCCC2)cc(-c2n[nH]c3ccc(-c4nnc[nH]4)cc23)c1
Summary of the method: as §1

Measured: log2 fold change

ASF1A (UniProt Q9Y294)
inactive: [1] 0.058 | [2] -0.026 | [3] -0.041 | [4] -0.019 | entinostat 0.057 | vorinostat 0.105 | citarinostat 0.047 | silmitasertib 0.007 | [5] -0.133 | [6] -0.038

ATG3 (UniProt Q9NT62)
inactive: [1] -0.026 | [2] -0.019 | [3] -0.066 | [4] 0.021 | entinostat -0.016 | vorinostat -0.006 | citarinostat 0.009 | silmitasertib -0.017 | [5] -0.049 | [6] -0.015

ATP5PB (UniProt P24539)
inactive: [1] -0.005 | [2] 0.005 | [3] 0.015 | [4] -0.017 | entinostat 0.05 | vorinostat -0.02 | citarinostat -0.001 | silmitasertib 0 | [5] 0 | [6] -0.027

ARMCX3 (UniProt Q9UH62)
inactive: [1] -0.134 | [2] 0 | [3] -0.153 | [4] -0.153 | entinostat 0.174 | vorinostat 0.063 | citarinostat 0.003 | silmitasertib -0.01 | [5] 0.076 | [6] -0.052

ASS1 (UniProt P00966)
inactive: [1] -0.054 | [2] -0.184 | [3] -0.087 | [4] 0.026 | entinostat 0.096 | vorinostat -0.052 | citarinostat -0.037 | silmitasertib 0.02 | [5] -0.013 | [6] 0.013

ATPSCKMT (UniProt Q6P4H8)
inactive: [1] 0.128 | [2] -0.028 | [3] -0.022 | [4] 0.016 | entinostat 0.044 | vorinostat -0.093 | citarinostat -0.008 | silmitasertib 0.068 | [5] 0 | [6] -0.061

ARPC1A (UniProt Q92747)
inactive: [1] 0.031 | [2] -0.021 | [3] -0.012 | [4] -0.005 | entinostat -0.03 | vorinostat -0.079 | citarinostat 0.015 | silmitasertib 0.081 | [5] 0.064 | [6] 0.018

ATP5F1C (UniProt P36542)
inactive: [1] 0.004 | [2] -0.021 | [3] -0.005 | [4] -0.001 | entinostat -0.022 | vorinostat -0.037 | citarinostat 0.003 | silmitasertib -0.002 | [5] -0.027 | [6] -0.019

ATP7A isoform 3 (UniProt Q04656)
inactive: [1] -0.021 | [2] 0.05 | [3] 0.046 | [4] -0.017 | entinostat 0.006 | vorinostat -0.039 | citarinostat 0.022 | silmitasertib 0.073 | [5] -0.063 | [6] -0.009

ATP6V1F isoform 2 (UniProt Q16864)
inactive: [1] 0.175 | [2] 0.221 | [3] -0.078 | [4] 0.143 | entinostat 0.087 | vorinostat -0.092 | citarinostat 0.026 | silmitasertib -0.042 | [5] -0.073 | [6] 0.026

ARL6IP4 (UniProt Q66PJ3)
inactive: [1] -0.035 | [2] 0.221 | [3] 0.025 | [4] 0.013 | entinostat -0.04 | vorinostat -0.011 | citarinostat 0.04 | silmitasertib -0.017 | [5] -0.007 | [6] -0.017

2 records drawn at random from those above:
ARPC1A (UniProt Q92747)
inactive: [1] 0.031 | [2] -0.021 | [3] -0.012 | [4] -0.005 | entinostat -0.03 | vorinostat -0.079 | citarinostat 0.015 | silmitasertib 0.081 | [5] 0.064 | [6] 0.018

ARL6IP4 (UniProt Q66PJ3)
inactive: [1] -0.035 | [2] 0.221 | [3] 0.025 | [4] 0.013 | entinostat -0.04 | vorinostat -0.011 | citarinostat 0.04 | silmitasertib -0.017 | [5] -0.007 | [6] -0.017

Next records

ATIC (UniProt P31939)
inactive: [1] -0.023 | [2] 0.001 | [3] 0.03 | [4] -0.009 | entinostat -0.019 | vorinostat -0.026 | citarinostat 0.01 | silmitasertib -0.059 | [5] -0.066 | [6] 0.013

ATP11B (UniProt Q9Y2G3)
inactive: [1] -0.014 | [2] 0.063 | [3] 0.031 | [4] -0.075 | entinostat -0.032 | vorinostat -0.028 | citarinostat 0.024 | silmitasertib 0.056 | [5] -0.011 | [6] 0.006

ATP11C (UniProt Q8NB49)
inactive: [1] 0.006 | [2] 0.036 | [3] -0.039 | [4] -0.026 | entinostat -0.038 | vorinostat -0.031 | citarinostat 0.017 | silmitasertib 0.042 | [5] -0.019 | [6] -0.003

ATL2 (UniProt Q8NHH9)
inactive: [1] -0.021 | [2] -0.03 | [3] -0.165 | [4] -0.094 | entinostat -0.025 | vorinostat 0.017 | citarinostat -0.023 | silmitasertib -0.004 | [5] -0.025 | [6] -0.058

ARL6IP6 (UniProt Q8N6S5)
inactive: [1] -0.085 | [2] -0.125 | [3] -0.073 | [4] -0.015 | entinostat -0.021 | vorinostat -0.007 | citarinostat -0.058 | silmitasertib -0.014 | [5] 0.011 | [6] -0.059

ARPC5L (UniProt Q9BPX5)
inactive: [1] -0.016 | [2] -0.04 | [3] -0.009 | [4] -0.014 | entinostat -0.031 | vorinostat -0.052 | citarinostat 0.049 | silmitasertib 0.058 | [5] -0.032 | [6] -0.006

ATP6V0D1 (UniProt P61421)
inactive: [1] 0.016 | [2] -0.042 | [3] -0.208 | [4] -0.057 | entinostat 0.101 | vorinostat -0.001 | citarinostat 0.044 | silmitasertib 0.057 | [5] -0.006 | [6] -0.141

ASNA1 (UniProt O43681)
inactive: [1] 0.045 | [2] 0 | [3] -0.023 | [4] 0.035 | entinostat 0.003 | vorinostat -0.035 | citarinostat 0.038 | silmitasertib 0.03 | [5] 0.024 | [6] -0.024

ATPAF2 (UniProt Q8N5M1)
inactive: [1] -0.032 | [2] -0.055 | [3] -0.112 | [4] -0.042 | entinostat -0.057 | vorinostat 0.001 | citarinostat 0.031 | silmitasertib 0.05 | [5] -0.04 | [6] -0.017

ARPC4 isoform 3 (UniProt P59998)
inactive: [1] 0.005 | [2] 0.003 | [3] -0.027 | [4] -0.051 | entinostat -0.002 | vorinostat -0.042 | citarinostat -0.002 | silmitasertib 0.039 | [5] -0.013 | [6] -0.052

ARPC1B (UniProt O15143)
inactive: [1] -0.001 | [2] 0.136 | [3] -0.015 | [4] 0.189 | entinostat 0.012 | vorinostat -0.013 | citarinostat 0.143 | silmitasertib 0.007 | [5] -0.061 | [6] 0.022

ATP2C1 isoform 7 (UniProt P98194)
inactive: [1] 0.07 | [2] -0.005 | [3] -0.112 | [4] -0.051 | entinostat 0.037 | vorinostat -0.058 | citarinostat -0.026 | silmitasertib 0.049 | [5] 0.136 | [6] -0.097

ATOX1 (UniProt O00244)
inactive: [1] 0.175 | [2] 0.273 | [3] -0.032 | [4] 0.03 | entinostat 0.081 | vorinostat -0.018 | citarinostat 0.091 | silmitasertib -0.105 | [5] -0.081 | [6] -0.004

ATP5PF isoform 2 (UniProt P18859)
inactive: [1] 0.064 | [2] -0.001 | [3] 0.015 | [4] 0.044 | entinostat 0.056 | vorinostat -0.173 | citarinostat -0.073 | silmitasertib -0.019 | [5] -0.05 | [6] 0

ASMTL (UniProt O95671)
inactive: [1] -0.04 | [2] -0.141 | [3] -0.256 | [4] -0.227 | entinostat 0.001 | vorinostat 0.075 | citarinostat -0.086 | silmitasertib -0.002 | [5] 0.084 | [6] -0.027

ATP5MF (UniProt P56134)
inactive: [1] -0.02 | [2] 0.063 | [3] 0.033 | [4] 0.002 | entinostat -0.027 | vorinostat -0.042 | citarinostat 0.028 | silmitasertib 0.027 | [5] -0.015 | [6] -0.068

ARL2BP (UniProt Q9Y2Y0)
inactive: [1] -0.056 | [2] -0.108 | [3] -0.129 | [4] -0.088 | entinostat -0.057 | vorinostat 0.132 | citarinostat 0.006 | silmitasertib -0.02 | [5] 0.108 | [6] 0.046

ARL3 (UniProt P36405)
inactive: [1] 0.02 | [2] -0.005 | [3] -0.051 | [4] 0.006 | entinostat -0.024 | vorinostat -0.013 | citarinostat 0.05 | silmitasertib 0 | [5] -0.001 | [6] -0.022

ARPP19 (UniProt P56211)
inactive: [1] -0.049 | [2] -0.075 | [3] -0.019 | [4] 0.046 | entinostat 0.027 | vorinostat -0.038 | citarinostat 0.1 | silmitasertib 0 | [5] 0.026 | [6] -0.051
